Reference: PMC8968858
These are yes or no findings as the source states them, for the method shown. Binding seen in cells or lysates may run through a third protein. Some binding calls cover weakened binding; strength is not graded here.

The chains behind the UniProt entries cited, without tags or fusion partners. Residues count along the entry.
UniProt Q9ULX9: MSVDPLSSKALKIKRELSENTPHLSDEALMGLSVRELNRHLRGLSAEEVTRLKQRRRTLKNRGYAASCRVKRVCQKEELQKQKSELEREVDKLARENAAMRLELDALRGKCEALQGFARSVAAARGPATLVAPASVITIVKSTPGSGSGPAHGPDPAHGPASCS
UniProt P06733, residues 94-434: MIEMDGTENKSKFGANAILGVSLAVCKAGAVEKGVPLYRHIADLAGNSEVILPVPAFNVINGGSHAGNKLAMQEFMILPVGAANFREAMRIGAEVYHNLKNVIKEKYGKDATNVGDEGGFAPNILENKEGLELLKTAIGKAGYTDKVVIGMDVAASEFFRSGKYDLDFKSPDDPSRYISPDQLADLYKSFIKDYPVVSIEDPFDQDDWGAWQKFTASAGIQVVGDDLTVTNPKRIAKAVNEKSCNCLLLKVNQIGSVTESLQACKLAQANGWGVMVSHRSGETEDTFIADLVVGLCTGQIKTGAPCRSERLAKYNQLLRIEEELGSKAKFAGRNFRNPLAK

Molecular target: MAF bZIP transcription factor F (MAFF) (human (endogenous in Caco-2)) (UniProt Q9ULX9)
Assay: co-IP; Caco-2 lysate in RIPA buffer, rabbit MAFF antibody, Protein-A agarose, washed 5 times with RIPA buffer; Western blot with MAFF and ENO1 (MBP1) antibodies

binding: binds
Substance: c-myc promoter binding protein 1 (MBP1) (from UniProt P06733-2 1-341)
